These are yes or no findings as the source states them, for the method shown. In cells and extracts the contact can be indirect. A yes stands for co-enrichment or nearness to the bait. Other partners may have been found.
Key:
TAP-Ubp1 (S. pombe) = molecular target: T1, TAP-Ubp1 (S. pombe) (UniProt Q9USM5); test: affinity purification with mass spectrometry; bait N-terminally TAP-tagged, expressed at low levels from the nmt81 promoter (pREP81-TAP), tandem affinity purification from native S. pombe lysate, 2D LC-MS/MS; duplicates
T1 sequence: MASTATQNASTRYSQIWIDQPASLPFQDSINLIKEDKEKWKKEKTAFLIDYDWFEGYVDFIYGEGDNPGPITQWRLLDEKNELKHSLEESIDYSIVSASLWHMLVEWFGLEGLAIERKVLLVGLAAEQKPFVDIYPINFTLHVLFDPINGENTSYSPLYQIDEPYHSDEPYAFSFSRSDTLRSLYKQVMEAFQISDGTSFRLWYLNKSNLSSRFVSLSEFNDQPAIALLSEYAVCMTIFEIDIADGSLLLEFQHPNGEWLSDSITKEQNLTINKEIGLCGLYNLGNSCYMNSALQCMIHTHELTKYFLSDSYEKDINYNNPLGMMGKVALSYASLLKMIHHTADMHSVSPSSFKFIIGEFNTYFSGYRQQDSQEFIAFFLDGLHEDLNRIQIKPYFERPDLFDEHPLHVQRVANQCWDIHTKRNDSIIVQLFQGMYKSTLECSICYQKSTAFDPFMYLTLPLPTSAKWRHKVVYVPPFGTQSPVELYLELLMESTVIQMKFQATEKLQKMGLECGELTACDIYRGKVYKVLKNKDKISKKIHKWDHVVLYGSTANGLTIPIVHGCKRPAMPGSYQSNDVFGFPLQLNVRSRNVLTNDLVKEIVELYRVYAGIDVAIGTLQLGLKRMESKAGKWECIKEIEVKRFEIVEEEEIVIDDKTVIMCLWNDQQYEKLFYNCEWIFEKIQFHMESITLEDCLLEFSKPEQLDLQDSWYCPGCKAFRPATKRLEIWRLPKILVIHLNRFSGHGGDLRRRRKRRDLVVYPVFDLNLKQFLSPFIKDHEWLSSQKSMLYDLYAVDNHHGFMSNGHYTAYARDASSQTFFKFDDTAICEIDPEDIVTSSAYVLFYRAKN

Sequences of proteins named here, by UniProt entry; tags and fusion partners are left off.
UniProt Q9UTN6: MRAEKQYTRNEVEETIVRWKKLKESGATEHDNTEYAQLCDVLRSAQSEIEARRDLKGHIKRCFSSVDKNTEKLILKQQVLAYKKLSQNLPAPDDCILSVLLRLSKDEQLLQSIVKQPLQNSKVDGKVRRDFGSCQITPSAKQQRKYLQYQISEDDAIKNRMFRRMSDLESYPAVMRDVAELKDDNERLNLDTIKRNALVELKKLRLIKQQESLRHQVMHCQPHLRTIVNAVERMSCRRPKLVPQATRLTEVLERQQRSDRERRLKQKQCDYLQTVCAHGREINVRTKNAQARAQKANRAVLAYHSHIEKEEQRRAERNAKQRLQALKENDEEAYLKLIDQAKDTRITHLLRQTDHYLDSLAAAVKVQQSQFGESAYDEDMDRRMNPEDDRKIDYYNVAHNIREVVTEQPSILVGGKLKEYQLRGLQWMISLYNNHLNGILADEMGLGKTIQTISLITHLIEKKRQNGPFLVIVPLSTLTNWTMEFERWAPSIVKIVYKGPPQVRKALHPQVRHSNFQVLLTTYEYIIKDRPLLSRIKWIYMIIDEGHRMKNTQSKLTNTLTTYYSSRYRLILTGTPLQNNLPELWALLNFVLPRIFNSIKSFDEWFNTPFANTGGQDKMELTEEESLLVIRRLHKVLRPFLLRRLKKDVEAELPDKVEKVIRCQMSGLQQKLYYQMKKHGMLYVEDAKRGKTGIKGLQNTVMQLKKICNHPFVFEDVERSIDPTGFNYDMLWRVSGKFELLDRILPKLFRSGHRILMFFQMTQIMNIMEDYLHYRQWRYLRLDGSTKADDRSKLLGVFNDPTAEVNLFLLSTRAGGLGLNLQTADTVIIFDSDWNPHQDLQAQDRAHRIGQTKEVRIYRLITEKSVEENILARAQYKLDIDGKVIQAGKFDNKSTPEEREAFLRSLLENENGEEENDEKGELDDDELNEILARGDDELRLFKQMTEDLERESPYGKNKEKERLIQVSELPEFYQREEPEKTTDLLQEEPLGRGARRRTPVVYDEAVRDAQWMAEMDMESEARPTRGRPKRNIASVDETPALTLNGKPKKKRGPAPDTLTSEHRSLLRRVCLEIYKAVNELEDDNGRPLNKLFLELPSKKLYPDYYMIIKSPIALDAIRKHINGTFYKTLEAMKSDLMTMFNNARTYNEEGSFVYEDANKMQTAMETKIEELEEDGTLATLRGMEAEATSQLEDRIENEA

Ftp105-TAP (S. pombe) = test: affinity purification with mass spectrometry; bait endogenously TAP-tagged at its C-terminus, tandem affinity purification from native S. pombe lysate, co-purified proteins identified by 2D LC-MS/MS; duplicates, only proteins found in both replicates
Bun62-TAP (S. pombe) = molecular target: T2, Bun62-TAP (S. pombe) (UniProt Q10437); test: as above
T2 sequence: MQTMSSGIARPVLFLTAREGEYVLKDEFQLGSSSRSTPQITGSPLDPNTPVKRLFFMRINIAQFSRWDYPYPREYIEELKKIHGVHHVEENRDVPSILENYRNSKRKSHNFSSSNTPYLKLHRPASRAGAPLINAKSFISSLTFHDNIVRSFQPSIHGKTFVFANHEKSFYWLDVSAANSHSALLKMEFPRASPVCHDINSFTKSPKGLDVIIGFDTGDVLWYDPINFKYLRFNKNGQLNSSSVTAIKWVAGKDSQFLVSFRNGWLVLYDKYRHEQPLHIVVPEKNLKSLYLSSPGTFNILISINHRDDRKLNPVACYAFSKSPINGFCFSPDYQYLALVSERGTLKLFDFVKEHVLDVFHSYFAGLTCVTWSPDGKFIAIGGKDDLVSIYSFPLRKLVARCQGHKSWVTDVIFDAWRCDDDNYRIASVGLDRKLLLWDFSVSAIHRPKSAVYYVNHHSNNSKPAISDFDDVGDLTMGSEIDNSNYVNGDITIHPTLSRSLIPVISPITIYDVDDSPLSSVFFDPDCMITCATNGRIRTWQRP

Ubp6-TAP (S. pombe) = molecular target: T3, Ubp6-TAP (S. pombe) (UniProt Q92353); test: as above
T3 sequence: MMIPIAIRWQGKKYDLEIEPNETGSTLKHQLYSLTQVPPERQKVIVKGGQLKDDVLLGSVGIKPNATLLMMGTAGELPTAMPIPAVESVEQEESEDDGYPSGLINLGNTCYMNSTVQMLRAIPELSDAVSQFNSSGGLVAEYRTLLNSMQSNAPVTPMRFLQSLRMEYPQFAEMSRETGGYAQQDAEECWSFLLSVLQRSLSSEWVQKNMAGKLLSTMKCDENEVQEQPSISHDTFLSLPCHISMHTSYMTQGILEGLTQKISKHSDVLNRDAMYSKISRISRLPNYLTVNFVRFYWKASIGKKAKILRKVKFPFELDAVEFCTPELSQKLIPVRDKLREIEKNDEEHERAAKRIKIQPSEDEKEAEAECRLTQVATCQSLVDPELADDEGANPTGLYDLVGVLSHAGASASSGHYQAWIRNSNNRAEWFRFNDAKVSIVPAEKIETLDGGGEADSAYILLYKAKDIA

How did the binding (TAP-Ubp1 (S. pombe)) turn out when Snf21 (from UniProt Q9UTN6 1-1199) was run?
The binding was “binds”.

B1: Ubp5 (enzyme, UniProt Q09879 1-1108)
chain: MVTGETLVDSQKSLINNDTLLNEKLKEDFEENVSIDVKIHEELRRALPDYEESGFQRFTWHIKSWHELDRRAVSPQFAVGSRQFKITYFPQGTLQSAGFTSIFLEYIPSEEEKLSNKYGCCCQFAFVISNPRKPSLSVANSAHCRFSPEIVDWGFTQFAELKKLLCRQAPDVPPIVEDGALLLTAYVRILKDPTGVLWHSFNDYDSKIATGYVGLKNQGATCYMNSLLQSLYIIHAFRRIVYQIPTDSPQGKDSIAYALQRCFYNLQFMNEPVSTTELTKSFGWDSLDSFMQHDVQEFNRVLQDNLERSMRDTKVENALTNLFVGKMKSYIACVNVNFESARSEDYWDIQLNVKGMKNLEDSFRSYIQVETLEGDNCYFADTYGFQEAKKGVIFESFPPILHLQLKRFEYDFERDMMIKINDRYEFPLEFDAKAFLSPEADQSQNCEYVLYGVLVHSGDLHNGHYYALLKTEKDGPWYKYDDTRVTRATLREVLEENYGGDYIMHPPFRSPVKLKRFMSAYMLLYLRKDKLDELMNPVSADEIPEHLKEALNPSIQLAELRRKERLESHLYTKVQLITPEFYSEHHEFDIADFGNAYKEETIPQFRIKKEAKFSEFIPIVAEKLGYPQECMRFWYVVKRHNCTVRVESPVNELNSTMEEVKNVWNSQGEILRLYLEITPENELSSSLTHQNTGEWNAFIFVKYFDRKSQEISGCGTLHVNKSDEIRSICPLLCERANLPKNTPLNIYEEIKPGMVDFLRLEKTFTQSELSTGDIICFEPCRPSALEDDIVNSGFDSALKLYDFLSNKVLVLFRPRFIDQDSIIEFEMLLDRRIKYDDLCIELGQKLGIGADHIRLTTCNPLTYSAGMVVPNDSNITLYEILYSSEEEMPSNVIFYETMDVSLSDLDRKRLVRLRWLVDGLANIELVEAYINKSGDINDLFGAVCERFPDSDLRKKKVRVYEVFESRYHRDLSLRTLIRTINPAATLVGEVVPLDQLQLYPEEKIVQVHHFHKDIARIHGIPFSFVIKPQEKFIDTKLRLAARTQYPESIFSVIKFCVVDFDNNRVVYLNDEDITYDVVEKLNGTLALDRAKKDSKKPNILDRAIQMKN
B1 was tested. Which binding (Ftp105-TAP (S. pombe)) did it give?
Its binding is “binds”.

B2: Ubp9 (enzyme, UniProt Q9P7V9 1-585)
chain: MSLLRWMGMNSPGSTDRRKSTWEAELPKPSIRPETLTDRFYGLTNYGNTCYVSSVLVSLYHLKPFRDSLNSYPLPSAPPNFKSVCTKTNHPESSSSRHSKKKSMENRKSSLYGSNGINSCGCVDISNVGSESGTKHQIVVGESNCSAYGMKENIYTCLKDLYCSVSCCDCRYGICSPERFIQVLRRDNEAFRSTQQQDAHEFFNFLLNSVTETLDEYYGNHSDVMHPKWVHSLFEGTLTSETKCLTCENITSRDESFLDLSIDIENHTSVTSCLRSFSASEMLSSKNKFHCDVCKSLQEAEKRMKIKKLPKILSLHLKRFKYNETQEGHDKLFYTIVFTNEMRLFTTTEDAENAERMYYLSSVIVHVGGGPHRGHYVSIVRTKTYGWVLFDDENVTPVNENYLQRFFGDQPGQATAYVLFYTAADEEDDDVSEVDTKESIKPMSIPSQLKQESVEVSNLSSTPRSNSTITYPDMDPMVASFSSQYSHKTLDRDINSRSYFDREPSLDAERFHSRSVDASPKAVRRESRSFFPSLTRKRSKFFGSSQSNSPKDSPLRDTHKSSDEHSESKHSHTLPWQFSRSRSKR
With B2 as the molecule, how does the binding (Bun62-TAP (S. pombe)) read?
The binding was “binds”.

B3: Rpn1/Mts4 (protein, UniProt P87048 1-891)
chain: MSSKDISSKSPSGNDALNDKKGTKTSETNDRNSTNNTKERDELEDLSEEDLQLKNDLELLVQAVQDATPELVGSSLTQLKEIIRTSTSSMTAVPKPLKFLRPHYFTLVKIYDSWPQSPQKTQLADILSVLGMSYSNTSKHESLKYRLQGVTTDPSLWGHEYVRHLASEIEEEFASRQEEEAPTDDLMELALTIVPFFLTHNAEADAIDLLQELGAIEKVVPFVELDNASRVCLYITSCVNLLPFPEDVAMLRTAHAIYRKFDQLTQALNVAIRLDDMSLIKEDCEAATDPLLKKQMSYMLARQQIPMDMGDEELNDALNNTHLSDHFHYLGKELNLMDPKVPEDIFKTHLEVARTGLGASGVYSAKQNLANTFVNALVNAGYSNDRLILVDDEKTSWIYKNKESGLISATASIGLLQLWNVDMGLSLLDKYLYSSEENTKAGALLGIGVTNVAVRNEADPAMAILSEYLETGSVKLRASAILGLGLAYSGANREDLLDMLSPIVTDTDCPMQLSCLAALSLGLIFVGTCNGDVASTILQTLMEREESAQNDQWGRFMALGLALLFNGKQDLADATVETLKAIEGKIARQAEILVDICSYAGTGNVLHIQKLLHICSEPPSDDAKESETTIQTFAALGVATIAMGEDIGAEMVLRHFDHMMHYGEPSIRKAIPLALGLLSASNPQMRIFDTLSRYSHDNDLDVAYNAIFAMGLVGAGTSNARLAQLLRQLASYYHKESNALFMVRIAQGLLYLGKGTMTLNPYHTERQILGQTAFAGLMTVVLAMLDANTFVLDTSHWLLYAITLAIRPRMLITLGEDGQYLPVSVRVGQAVDVVGQAGRPKVITGWVTHTTPVLLHHNERAELATEAYTPLTSLEGIVILKKNTEDIEMTA
How did the binding (Ubp6-TAP (S. pombe)) turn out when B3 was run?
The binding was “binds”.
